Experimental data: PubChem BioAssay AID652272 (Drosophila RNAi Screening Center, 2013)

Test: 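Finding fly genes that regulate Hedgehog signal transduction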 (primary screen)
System: Drosophila clone 8 (Cl8) cells
Knock-down reagent: long dsRNA against Drosophila genes
Detection: 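Firefly light from a Hedgehog-responsive ptc promoter reporter and Renilla reference light, both read on a plate reader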
Direction: firefly Hh reporter signal: higher = more ptc reporter light; Renilla reference signal: higher = more Renilla control light
Active means: 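Called a hit if the two-replicate mean z-score lies below -2 or above +3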
Meaning of the calls: active = hit: reporter lowered or raised; inactive = not a hit
The deposit covers about 21,000 reagents; this is a random part of those with a known target gene and a result. In the full data, 503 (2.4%) were called active. 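Raw plate light values, not normalised; calls rest on replicate z-scores that were not deposited; hits include reporter decreases as well as increases.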 A plus sign joins genes that one reagent is predicted to hit. Not stated in the record: the amount of reagent, the time to read-out.

After knock-down of CG30385 (GeneID 246585) [DRSC06031], the record shows firefly Hh reporter signal, replicate 1 = 1.09e5; firefly Hh reporter signal, replicate 2 = 55968; Renilla reference signal, replicate 1 = 2726; Renilla reference signal, replicate 2 = 5061; inactive.
CG31274 + MESK4 [DRSC13202] gave firefly Hh reporter signal, replicate 1 = 50534; firefly Hh reporter signal, replicate 2 = 1.74e5; Renilla reference signal, replicate 1 = 10040; Renilla reference signal, replicate 2 = 3028; inactive.
Knock-down of CG13884 (GeneID 38064) [DRSC08354] came out at: firefly Hh reporter signal, replicate 1 = 65177; firefly Hh reporter signal, replicate 2 = 44727; Renilla reference signal, replicate 1 = 1947; Renilla reference signal, replicate 2 = 3845; inactive.
With knock-down of angel (GeneID 37748) [DRSC04670], the record shows firefly Hh reporter signal, replicate 1 = 2.03e5; firefly Hh reporter signal, replicate 2 = 1.27e5; Renilla reference signal, replicate 1 = 7197; Renilla reference signal, replicate 2 = 5376; inactive.
For Paics (GeneID 32228) [DRSC20305], the entry reads firefly Hh reporter signal, replicate 1 = 1.00e5; firefly Hh reporter signal, replicate 2 = 85524; Renilla reference signal, replicate 1 = 2265; Renilla reference signal, replicate 2 = 1888; inactive.
For CG34305 (GeneID 5740825) [DRSC11995], the values are firefly Hh reporter signal, replicate 1 = 2.27e5; Renilla reference signal, replicate 1 = 5136; inactive.
CG43693 (GeneID 39231) [DRSC09086] scored firefly Hh reporter signal, replicate 1 = 1.36e5; firefly Hh reporter signal, replicate 2 = 2.44e5; Renilla reference signal, replicate 1 = 4432; Renilla reference signal, replicate 2 = 10354; inactive.
Against CG43693 (GeneID 39231) [DRSC10625], the entry reads firefly Hh reporter signal, replicate 1 = 81220; firefly Hh reporter signal, replicate 2 = 56325; Renilla reference signal, replicate 1 = 4784; Renilla reference signal, replicate 2 = 2368; inactive.
For ms(3)76Ba (GeneID 40109) [DRSC10091], the values are firefly Hh reporter signal, replicate 1 = 82300; firefly Hh reporter signal, replicate 2 = 83459; Renilla reference signal, replicate 1 = 3153; Renilla reference signal, replicate 2 = 2155; inactive.
Psf3 (GeneID 31967) [DRSC18216] scored firefly Hh reporter signal, replicate 1 = 1.70e5; firefly Hh reporter signal, replicate 2 = 4.21e5; Renilla reference signal, replicate 1 = 6208; Renilla reference signal, replicate 2 = 15200; inactive.
With knock-down of Rpn12R (GeneID 2768973) [DRSC09842], the record shows firefly Hh reporter signal, replicate 1 = 1.29e5; Renilla reference signal, replicate 1 = 4885; Renilla reference signal, replicate 2 = 3523; inactive.
Gr59c (GeneID 192481) [DRSC04185] showed firefly Hh reporter signal, replicate 1 = 85190; firefly Hh reporter signal, replicate 2 = 65130; Renilla reference signal, replicate 1 = 2272; Renilla reference signal, replicate 2 = 4886; inactive.
Against CG13716 (GeneID 38567) [DRSC08325] the deposit lists firefly Hh reporter signal, replicate 1 = 79236; firefly Hh reporter signal, replicate 2 = 5.82e5; firefly Hh reporter signal, replicate 3 = 69318; Renilla reference signal, replicate 1 = 8464; Renilla reference signal, replicate 2 = 29013; inactive.
CG10516 (GeneID 39738) [DRSC09738] showed firefly Hh reporter signal, replicate 1 = 1.81e5; Renilla reference signal, replicate 1 = 2164; Renilla reference signal, replicate 2 = 4685; inactive.

2 consecutive reagents from above, quoted:
CG13716 (GeneID 38567) [DRSC08325] | firefly Hh reporter signal, replicate 1 = 79236; firefly Hh reporter signal, replicate 2 = 5.82e5; firefly Hh reporter signal, replicate 3 = 69318; Renilla reference signal, replicate 1 = 8464; Renilla reference signal, replicate 2 = 29013; Call = inactive
CG10516 (GeneID 39738) [DRSC09738] | firefly Hh reporter signal, replicate 1 = 1.81e5; Renilla reference signal, replicate 1 = 2164; Renilla reference signal, replicate 2 = 4685; Call = inactive
